The other results are listed elsewhere or left out.
compound: C[C@H](Nc1ncnc2nc[nH]c12)c1cc2cccc(Cl)c2c(=O)n1-c1ccccc1 [duvelisib]; test: log2 fold change, soluble protein after heating vs DMSO (PISA); higher = thermal stabilisation; K562 lysate, 10 uM; active = over 0.2 and 3.5 SD of the protein, either way, in both replicates (recomputed)
In short: (§1)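 Dounce homogenisation of K562 pellets in PBS pH 7.4 with 1 mM MgCl2 produced a crude extract, used at 1 mg/mL protein. Exposure to 10 μM compound lasted 30 min, and aliquots were then heated for 3 min across 48°C-58°C, pooled and brought to 0.5% NP-40 at 4°C. The supernatant after 21,000xg for 90 min was quantified by TMTpro 16plex LC-MS/MS with channel sums equalised. Duplicate values are given as log-two fold change in thermal stability relative to solvent controls.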

Amino acid sequences for entries named in this document (tags omitted). A change or cut given only in a name is not applied to a line headed by its entry.
UniProt O75191: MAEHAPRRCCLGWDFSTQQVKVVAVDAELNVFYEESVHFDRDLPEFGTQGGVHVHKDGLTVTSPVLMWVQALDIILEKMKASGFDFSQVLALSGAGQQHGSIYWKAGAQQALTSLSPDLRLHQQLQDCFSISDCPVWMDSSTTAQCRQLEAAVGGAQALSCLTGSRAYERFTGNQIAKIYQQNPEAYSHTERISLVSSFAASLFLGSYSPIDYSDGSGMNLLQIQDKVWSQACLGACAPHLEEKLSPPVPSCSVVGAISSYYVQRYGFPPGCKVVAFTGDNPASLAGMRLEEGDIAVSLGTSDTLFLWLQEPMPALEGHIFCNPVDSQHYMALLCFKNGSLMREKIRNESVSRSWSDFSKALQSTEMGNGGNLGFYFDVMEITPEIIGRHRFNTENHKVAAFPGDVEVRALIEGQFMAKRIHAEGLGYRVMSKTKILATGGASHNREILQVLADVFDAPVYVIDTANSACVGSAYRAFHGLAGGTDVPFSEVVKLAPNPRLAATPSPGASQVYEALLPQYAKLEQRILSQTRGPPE
UniProt P62699: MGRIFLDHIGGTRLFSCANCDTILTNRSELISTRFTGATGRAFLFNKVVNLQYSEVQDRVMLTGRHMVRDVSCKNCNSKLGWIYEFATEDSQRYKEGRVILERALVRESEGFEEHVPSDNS
UniProt P16989, whole entry, looked up: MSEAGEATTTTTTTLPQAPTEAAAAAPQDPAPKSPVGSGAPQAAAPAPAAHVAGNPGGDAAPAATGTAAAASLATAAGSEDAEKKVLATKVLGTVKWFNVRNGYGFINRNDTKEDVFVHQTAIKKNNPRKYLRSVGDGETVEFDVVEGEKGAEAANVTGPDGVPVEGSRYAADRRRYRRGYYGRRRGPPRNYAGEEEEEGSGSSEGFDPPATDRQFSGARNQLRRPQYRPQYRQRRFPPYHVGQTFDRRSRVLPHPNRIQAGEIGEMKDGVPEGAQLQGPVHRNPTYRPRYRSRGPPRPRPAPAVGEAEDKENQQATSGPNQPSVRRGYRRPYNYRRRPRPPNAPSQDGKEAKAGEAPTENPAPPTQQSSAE
UniProt Q9BSR8: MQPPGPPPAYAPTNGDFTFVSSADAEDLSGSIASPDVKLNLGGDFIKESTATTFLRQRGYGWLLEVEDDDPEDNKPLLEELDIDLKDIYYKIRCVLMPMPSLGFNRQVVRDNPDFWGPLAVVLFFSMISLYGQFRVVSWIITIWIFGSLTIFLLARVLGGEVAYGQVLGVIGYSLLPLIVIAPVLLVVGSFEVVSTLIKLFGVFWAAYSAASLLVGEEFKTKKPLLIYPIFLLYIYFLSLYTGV
UniProt Q9BYJ9: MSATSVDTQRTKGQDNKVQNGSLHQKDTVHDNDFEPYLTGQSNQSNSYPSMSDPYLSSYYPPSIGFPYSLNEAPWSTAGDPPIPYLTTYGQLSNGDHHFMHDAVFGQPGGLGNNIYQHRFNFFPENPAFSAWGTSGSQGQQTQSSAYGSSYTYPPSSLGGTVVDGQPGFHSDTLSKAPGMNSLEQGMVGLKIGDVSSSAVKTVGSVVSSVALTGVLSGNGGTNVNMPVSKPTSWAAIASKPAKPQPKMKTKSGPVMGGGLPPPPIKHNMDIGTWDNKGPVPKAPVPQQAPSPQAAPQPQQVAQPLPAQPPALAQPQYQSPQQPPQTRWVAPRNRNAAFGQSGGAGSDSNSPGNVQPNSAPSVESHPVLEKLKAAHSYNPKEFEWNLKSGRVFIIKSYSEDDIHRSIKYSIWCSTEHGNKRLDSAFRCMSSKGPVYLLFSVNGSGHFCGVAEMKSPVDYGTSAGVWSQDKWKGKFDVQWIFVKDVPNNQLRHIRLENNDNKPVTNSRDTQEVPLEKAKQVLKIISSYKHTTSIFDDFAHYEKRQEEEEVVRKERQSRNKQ
UniProt P49750: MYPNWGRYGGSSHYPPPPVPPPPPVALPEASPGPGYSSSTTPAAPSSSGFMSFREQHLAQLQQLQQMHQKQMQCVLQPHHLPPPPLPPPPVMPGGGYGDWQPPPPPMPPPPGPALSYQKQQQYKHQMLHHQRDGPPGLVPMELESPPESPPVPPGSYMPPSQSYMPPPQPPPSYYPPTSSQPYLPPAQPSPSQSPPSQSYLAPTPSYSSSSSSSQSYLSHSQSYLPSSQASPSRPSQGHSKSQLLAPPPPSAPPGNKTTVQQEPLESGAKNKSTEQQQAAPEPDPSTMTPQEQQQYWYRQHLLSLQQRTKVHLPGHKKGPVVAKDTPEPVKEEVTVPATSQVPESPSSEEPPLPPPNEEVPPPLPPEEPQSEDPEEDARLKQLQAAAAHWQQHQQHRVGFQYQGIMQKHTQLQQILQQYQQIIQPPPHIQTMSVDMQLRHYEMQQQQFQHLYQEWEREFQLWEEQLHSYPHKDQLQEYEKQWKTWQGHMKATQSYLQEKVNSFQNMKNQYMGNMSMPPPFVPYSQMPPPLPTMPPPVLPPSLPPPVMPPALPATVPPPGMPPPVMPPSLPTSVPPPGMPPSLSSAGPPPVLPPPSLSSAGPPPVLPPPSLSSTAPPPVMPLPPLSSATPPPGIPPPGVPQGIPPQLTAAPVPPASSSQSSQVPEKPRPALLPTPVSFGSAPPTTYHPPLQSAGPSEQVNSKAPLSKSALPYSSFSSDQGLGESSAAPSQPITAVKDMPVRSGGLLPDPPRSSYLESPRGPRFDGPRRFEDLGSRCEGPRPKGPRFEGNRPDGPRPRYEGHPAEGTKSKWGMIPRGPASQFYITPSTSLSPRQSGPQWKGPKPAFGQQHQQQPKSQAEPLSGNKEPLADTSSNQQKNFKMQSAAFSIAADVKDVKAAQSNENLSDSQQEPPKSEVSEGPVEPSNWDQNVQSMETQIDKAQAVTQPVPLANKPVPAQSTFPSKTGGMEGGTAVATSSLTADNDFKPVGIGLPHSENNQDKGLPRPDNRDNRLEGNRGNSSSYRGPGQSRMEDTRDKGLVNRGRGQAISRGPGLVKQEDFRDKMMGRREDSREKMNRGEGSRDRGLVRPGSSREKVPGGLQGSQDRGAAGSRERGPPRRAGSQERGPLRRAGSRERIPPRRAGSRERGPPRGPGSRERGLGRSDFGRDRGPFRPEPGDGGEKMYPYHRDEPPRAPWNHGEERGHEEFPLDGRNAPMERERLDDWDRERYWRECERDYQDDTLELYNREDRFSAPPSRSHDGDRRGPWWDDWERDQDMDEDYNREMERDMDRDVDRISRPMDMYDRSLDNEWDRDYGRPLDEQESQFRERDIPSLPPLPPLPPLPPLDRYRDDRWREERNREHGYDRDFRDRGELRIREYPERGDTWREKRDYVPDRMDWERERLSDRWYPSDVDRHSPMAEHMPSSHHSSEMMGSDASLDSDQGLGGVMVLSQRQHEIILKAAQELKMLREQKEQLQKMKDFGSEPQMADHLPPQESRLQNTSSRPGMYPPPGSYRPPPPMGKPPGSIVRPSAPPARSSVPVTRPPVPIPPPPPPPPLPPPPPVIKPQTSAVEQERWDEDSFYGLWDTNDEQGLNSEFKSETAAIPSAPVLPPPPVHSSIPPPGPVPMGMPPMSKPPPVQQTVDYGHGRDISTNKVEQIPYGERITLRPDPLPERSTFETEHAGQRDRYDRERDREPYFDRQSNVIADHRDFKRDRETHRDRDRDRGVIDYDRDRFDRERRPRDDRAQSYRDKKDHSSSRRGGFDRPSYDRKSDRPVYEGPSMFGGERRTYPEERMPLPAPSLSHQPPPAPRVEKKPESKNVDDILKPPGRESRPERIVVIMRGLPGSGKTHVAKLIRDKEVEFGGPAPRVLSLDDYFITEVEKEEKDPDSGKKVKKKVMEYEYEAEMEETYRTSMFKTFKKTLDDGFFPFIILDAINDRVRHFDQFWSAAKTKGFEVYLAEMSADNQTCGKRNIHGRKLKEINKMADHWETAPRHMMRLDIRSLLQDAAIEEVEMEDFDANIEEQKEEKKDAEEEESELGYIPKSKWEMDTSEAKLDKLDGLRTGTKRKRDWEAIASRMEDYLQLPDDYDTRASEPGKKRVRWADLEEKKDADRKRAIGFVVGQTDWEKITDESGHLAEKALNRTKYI
UniProt Q96QU8: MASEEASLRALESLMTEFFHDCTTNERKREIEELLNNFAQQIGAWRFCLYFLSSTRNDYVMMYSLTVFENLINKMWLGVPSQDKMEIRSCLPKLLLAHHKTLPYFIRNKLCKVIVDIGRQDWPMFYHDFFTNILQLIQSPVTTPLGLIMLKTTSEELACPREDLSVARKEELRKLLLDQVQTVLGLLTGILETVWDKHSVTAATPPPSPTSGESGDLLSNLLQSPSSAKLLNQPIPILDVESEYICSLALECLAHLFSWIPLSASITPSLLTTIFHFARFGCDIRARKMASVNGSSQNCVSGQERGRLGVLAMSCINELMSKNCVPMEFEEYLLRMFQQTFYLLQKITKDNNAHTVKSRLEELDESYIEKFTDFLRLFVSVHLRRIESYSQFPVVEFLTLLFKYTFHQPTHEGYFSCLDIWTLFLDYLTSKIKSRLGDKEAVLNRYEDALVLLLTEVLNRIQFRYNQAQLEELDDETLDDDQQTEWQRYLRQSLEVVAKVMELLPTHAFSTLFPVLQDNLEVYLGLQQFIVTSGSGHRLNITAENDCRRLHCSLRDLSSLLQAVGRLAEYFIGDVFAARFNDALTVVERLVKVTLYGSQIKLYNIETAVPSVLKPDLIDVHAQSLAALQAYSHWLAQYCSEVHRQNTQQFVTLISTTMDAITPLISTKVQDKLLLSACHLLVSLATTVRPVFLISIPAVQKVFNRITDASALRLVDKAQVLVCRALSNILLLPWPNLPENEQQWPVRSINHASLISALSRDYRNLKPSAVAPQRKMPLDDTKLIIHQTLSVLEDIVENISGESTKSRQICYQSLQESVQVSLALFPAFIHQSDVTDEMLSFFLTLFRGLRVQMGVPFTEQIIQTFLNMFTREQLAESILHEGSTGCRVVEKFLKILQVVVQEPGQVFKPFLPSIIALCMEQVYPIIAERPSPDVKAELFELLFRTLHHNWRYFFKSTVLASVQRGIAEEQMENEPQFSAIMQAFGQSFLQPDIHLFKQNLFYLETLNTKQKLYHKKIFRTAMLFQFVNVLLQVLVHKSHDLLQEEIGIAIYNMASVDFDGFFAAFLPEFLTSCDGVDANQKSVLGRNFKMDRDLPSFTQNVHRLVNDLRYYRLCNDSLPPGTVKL
UniProt Q9NUD5: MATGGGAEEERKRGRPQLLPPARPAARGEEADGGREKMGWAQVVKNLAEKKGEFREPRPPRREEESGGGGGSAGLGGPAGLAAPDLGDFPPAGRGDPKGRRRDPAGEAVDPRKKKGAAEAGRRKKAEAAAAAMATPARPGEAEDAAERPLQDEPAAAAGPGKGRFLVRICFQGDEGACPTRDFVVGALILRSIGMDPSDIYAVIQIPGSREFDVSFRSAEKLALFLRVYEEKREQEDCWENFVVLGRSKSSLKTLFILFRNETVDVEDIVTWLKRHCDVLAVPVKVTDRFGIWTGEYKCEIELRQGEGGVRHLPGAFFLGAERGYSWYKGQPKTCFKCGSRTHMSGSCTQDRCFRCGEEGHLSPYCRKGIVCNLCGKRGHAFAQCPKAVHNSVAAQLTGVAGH
UniProt Q9ULJ3: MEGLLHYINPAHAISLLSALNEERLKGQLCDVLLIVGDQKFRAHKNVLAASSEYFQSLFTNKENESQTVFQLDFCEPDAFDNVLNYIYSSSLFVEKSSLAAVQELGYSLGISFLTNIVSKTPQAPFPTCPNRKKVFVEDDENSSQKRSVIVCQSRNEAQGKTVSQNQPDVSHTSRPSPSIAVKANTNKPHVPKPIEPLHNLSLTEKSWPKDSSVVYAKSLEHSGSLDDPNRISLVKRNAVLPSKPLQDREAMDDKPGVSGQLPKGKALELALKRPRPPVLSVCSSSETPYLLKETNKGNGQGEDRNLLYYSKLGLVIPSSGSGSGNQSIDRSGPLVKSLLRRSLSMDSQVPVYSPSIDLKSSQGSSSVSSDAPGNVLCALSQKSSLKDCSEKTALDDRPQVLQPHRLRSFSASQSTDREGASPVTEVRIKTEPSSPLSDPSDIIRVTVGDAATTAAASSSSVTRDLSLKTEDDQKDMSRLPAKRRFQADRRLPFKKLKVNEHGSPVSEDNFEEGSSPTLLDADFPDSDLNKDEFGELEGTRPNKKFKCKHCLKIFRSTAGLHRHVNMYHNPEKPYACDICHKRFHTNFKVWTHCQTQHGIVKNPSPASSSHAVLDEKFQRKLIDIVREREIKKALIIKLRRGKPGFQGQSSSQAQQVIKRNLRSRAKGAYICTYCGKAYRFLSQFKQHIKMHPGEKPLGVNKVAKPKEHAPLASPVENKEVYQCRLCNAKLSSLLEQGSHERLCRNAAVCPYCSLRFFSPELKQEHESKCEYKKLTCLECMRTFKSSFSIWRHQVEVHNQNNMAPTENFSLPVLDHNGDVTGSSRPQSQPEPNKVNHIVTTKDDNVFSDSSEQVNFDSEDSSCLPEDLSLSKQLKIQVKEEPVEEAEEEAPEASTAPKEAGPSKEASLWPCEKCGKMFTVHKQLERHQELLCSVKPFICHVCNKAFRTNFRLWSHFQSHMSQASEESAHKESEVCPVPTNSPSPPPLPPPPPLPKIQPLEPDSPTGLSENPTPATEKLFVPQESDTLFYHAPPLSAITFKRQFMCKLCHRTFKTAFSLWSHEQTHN

log2 fold change, inactive:
YKT6 (UniProt O15498) -0.032
ZFC3H1 (UniProt O60293) -0.086
ZBTB24 (UniProt O43167) -0.016
XYLB (UniProt O75191) 0.062
XPO7 (UniProt Q9UIA9) 0.024
XRCC1 (UniProt P18887) -0.019
YPEL5 (UniProt P62699) 0.004
YOD1 (UniProt Q5VVQ6) -0.038
ZBTB10 (UniProt Q96DT7) -0.016
YBX3 (UniProt P16989) 0.03
YAF2 isoform 5 (UniProt Q8IY57) -0.008
XRCC4 (UniProt Q13426) 0.008
ZFAND3 (UniProt Q9H8U3) 0.01
ZBTB8OS (UniProt Q8IWT0) -0.065
XRN1 (UniProt Q8IZH2) -0.114
ZFYVE21 isoform 2 (UniProt Q9BQ24) -0.077
ZCCHC17 (UniProt Q9NP64) 0.065
YIPF4 (UniProt Q9BSR8) 0.007
XPR1 (UniProt Q9UBH6) 0.015
YWHAQ (UniProt P27348) -0.012
ZDHHC20 (UniProt Q5W0Z9) 0.029
YTHDF1 (UniProt Q9BYJ9) 0.055
ZDHHC5 (UniProt Q9C0B5) 0.024
YIF1B (UniProt Q5BJH7) -0.027
ZC3H14 (UniProt Q6PJT7) 0.044
YLPM1 (UniProt P49750) 0.009
ZBED1 (UniProt O96006) 0.065
ZFYVE9 (UniProt O95405) 0.006
YARS2 (UniProt Q9Y2Z4) -0.014
YWHAH (UniProt Q04917) -0.008
ZC3H8 (UniProt Q8N5P1) 0.012
XPO6 (UniProt Q96QU8) 0.06
XRCC5 (UniProt P13010) 0.008
ZCCHC3 (UniProt Q9NUD5) 0.039
YTHDF3 (UniProt Q7Z739) 0.017
YME1L1 (UniProt Q96TA2) -0.017
ZC3H13 (UniProt Q5T200) 0.041
ZBTB21 (UniProt Q9ULJ3) -0.009

compound: Cc1cc(Nc2cc(CN3CCOCC3)c3nc(C)c(Cc4ccc(Cl)cc4F)n3n2)n[nH]1 [gandotinib]; test: as above
In short: as §1

log2 fold change, inactive:
YKT6 (UniProt O15498) -0.087
ZFC3H1 (UniProt O60293) 0.011
ZBTB24 (UniProt O43167) 0.135
XYLB (UniProt O75191) -0.011
XPO7 (UniProt Q9UIA9) -0.038
XRCC1 (UniProt P18887) -0.154
YPEL5 (UniProt P62699) -0.086
YOD1 (UniProt Q5VVQ6) -0.005
ZBTB10 (UniProt Q96DT7) 0.089
YBX3 (UniProt P16989) 0.014
YAF2 isoform 5 (UniProt Q8IY57) -0.034
XRCC4 (UniProt Q13426) 0.052
ZFAND3 (UniProt Q9H8U3) -0.041
ZBTB8OS (UniProt Q8IWT0) 0.047
XRN1 (UniProt Q8IZH2) -0.031
ZFYVE21 isoform 2 (UniProt Q9BQ24) -0.058
ZCCHC17 (UniProt Q9NP64) -0.071
YIPF4 (UniProt Q9BSR8) 0.026
XPR1 (UniProt Q9UBH6) -0.072
YWHAQ (UniProt P27348) -0.089
ZDHHC20 (UniProt Q5W0Z9) 0.027
YTHDF1 (UniProt Q9BYJ9) -0.019
ZDHHC5 (UniProt Q9C0B5) -0.026
YIF1B (UniProt Q5BJH7) -0.052
ZC3H14 (UniProt Q6PJT7) 0.023
YLPM1 (UniProt P49750) -0.067
ZBED1 (UniProt O96006) -0.019
ZFYVE9 (UniProt O95405) 0.013
YARS2 (UniProt Q9Y2Z4) 0.028
YWHAH (UniProt Q04917) -0.079
ZC3H8 (UniProt Q8N5P1) -0.039
XPO6 (UniProt Q96QU8) 0.005
XRCC5 (UniProt P13010) -0.067
ZCCHC3 (UniProt Q9NUD5) -0.013
YTHDF3 (UniProt Q7Z739) 0.107
YME1L1 (UniProt Q96TA2) -0.112
ZC3H13 (UniProt Q5T200) -0.063
ZBTB21 (UniProt Q9ULJ3) 0.067
